PubChem BioAssay AID1671195, Yale University – 2021
Here is a random part of about 22,000 deposited reagents. Over the whole deposit, about 1,510 (6.9%) are marked active. 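Active includes knockdowns raising or lowering LDL uptake; positive z-scores mean more uptake, negative mean less.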

Test: 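Genes whose knockdown alters LDL uptake in liver cancer cells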 (primary screen)
System: human Huh7 hepatoma cells
Reagent: siRNA pool against human genes, 18 nM
Timing: about 2 to 2.5 days of knockdown, then 8 h LDL uptake
Conditions: DiI-labelled LDL at 30 µg/ml for 8 h, in lipoprotein-deficient serum medium
Measurement: 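Per-cell DiI-LDL intensity by automated imaging; well means scaled to the plate median and given as a robust z-score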
Scale: robust z-score: higher = more LDL uptake after knockdown
Rule for the call: 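Active when two or more replicates show a robust z-score above 2 or below -2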

What did the screen give for PRR25 (GeneID 388199)?
robust z-score, replicate 1: 1.89; robust z-score, replicate 2: 2.01; robust z-score, replicate 3: 2.32; call: active

For SLC13A2 (GeneID 9058), how do the results read?
robust z-score, replicate 1: 0.146; robust z-score, replicate 2: 0.628; robust z-score, replicate 3: 0.356; call: inactive

For MAEL (GeneID 84944), how do the results read?
robust z-score, replicate 1: 1.53; robust z-score, replicate 2: 0.706; robust z-score, replicate 3: 1.26; call: inactive

For PURB (GeneID 5814), what does the deposit list?
robust z-score, replicate 1: 2.96; robust z-score, replicate 2: 2.97; robust z-score, replicate 3: 3.34; call: active

For LOXL4 (GeneID 84171), how do the results read?
robust z-score, replicate 1: 0.208; robust z-score, replicate 2: 0.758; robust z-score, replicate 3: 0.621; call: inactive

With PLA2G5 (GeneID 5322), how do the results read?
robust z-score, replicate 1: 1.17; robust z-score, replicate 2: 1.94; robust z-score, replicate 3: 1.22; call: inactive

For LIMS2 (GeneID 55679), what was measured?
robust z-score, replicate 1: 0.532; robust z-score, replicate 2: 0.666; robust z-score, replicate 3: -0.0926; call: inactive

How did the screen score SSUH2 (GeneID 51066)?
robust z-score, replicate 1: 2.55; robust z-score, replicate 2: 1.66; robust z-score, replicate 3: -1.25; call: inactive

How did the screen score RNF103 (GeneID 7844)?
robust z-score, replicate 1: 0.0165; robust z-score, replicate 2: 0.773; robust z-score, replicate 3: 0.73; call: inactive

A run of entries of the results above, for reference:
LOXL4 (GeneID 84171) → robust z-score, replicate 1 = 0.208; robust z-score, replicate 2 = 0.758; robust z-score, replicate 3 = 0.621; call = inactive
PLA2G5 (GeneID 5322) → robust z-score, replicate 1 = 1.17; robust z-score, replicate 2 = 1.94; robust z-score, replicate 3 = 1.22; call = inactive

Next results:
Which result is listed for DRAM1 (GeneID 55332)?
robust z-score, replicate 1: -0.751; robust z-score, replicate 2: -0.806; robust z-score, replicate 3: -1.01; call: inactive

With LOC389224 (retired record) (GeneID 389224), what was measured?
robust z-score, replicate 1: -0.285; robust z-score, replicate 2: -0.734; robust z-score, replicate 3: -0.385; call: inactive

With TMEM131 (GeneID 23505), what does the deposit list?
robust z-score, replicate 1: 1.28; robust z-score, replicate 2: 2.06; robust z-score, replicate 3: 0.831; call: inactive

What is on record for GRHPR (GeneID 9380)?
robust z-score, replicate 1: -1.03; robust z-score, replicate 2: -0.0875; robust z-score, replicate 3: -2.46; call: inactive

With PPIB (GeneID 5479), how do the results read?
robust z-score, replicate 1: -0.92; robust z-score, replicate 2: -0.175; robust z-score, replicate 3: -0.73; call: inactive

With LOC387764 (retired record) (GeneID 387764), what does the deposit list?
robust z-score, replicate 1: 2.71; robust z-score, replicate 2: 2.41; robust z-score, replicate 3: 3.38; call: active

What is on record for GREB1L (GeneID 80000)?
robust z-score, replicate 1: -1.51; robust z-score, replicate 2: -1.05; robust z-score, replicate 3: -0.61; call: inactive
